{
  "source": "patent US20090196930A1",
  "about": "“AEROSOLIZED NITRITE AND NITRIC OXIDE -DONATING COMPOUNDS AND USES THEREOF” (Aires Pharmaceuticals, Inc., priority 2007, published 2009)",
  "note": "Like-named read-outs stand apart in the source and are kept apart here.",
  "data": [
    {"smiles": "O=NO", "note": "[sodium nitrite]", "values": [
      {"measurement": "Duration", "setting": "Aeroneb Go, 277.8 mg loaded", "result": "6.2 ± 1.1", "unit": "min"},
      {"measurement": "FPD %", "setting": "Aeroneb Go, 277.8 mg loaded", "result": "14.4 ± 2.0", "unit": "%"},
      {"measurement": "Fine Particle Dose", "setting": "Aeroneb Go, 277.8 mg loaded", "result": "39.9 ± 5.2", "unit": "mg"},
      {"measurement": "Inspired Dose", "setting": "Aeroneb Go, 277.8 mg loaded", "result": "74.6 ± 10.6", "unit": "mg"},
      {"measurement": "Output (FPD/Min)", "setting": "Aeroneb Go, 277.8 mg loaded", "result": "6.5 ± 0.6", "unit": "FPD/Min"},
      {"measurement": "Total Recovered", "setting": "Aeroneb Go, 277.8 mg loaded", "result": "97.5 ± 10.9", "unit": "mg"},
      {"measurement": "Ultra Fine Particle Dose", "setting": "Aeroneb Go, 277.8 mg loaded", "result": "25.3 ± 3.6", "unit": "mg"},
      {"measurement": "Residual Dose", "setting": "Aeroneb Go, 277.8 mg loaded, only drug within the medication cup", "result": "22.9 ± 4.8", "unit": "mg"},
      {"measurement": "Duration", "setting": "I-neb, 83.3 mg loaded", "result": "12.5 ± 1.0", "unit": "min"},
      {"measurement": "FPD %", "setting": "I-neb, 83.3 mg loaded", "result": "48.8 ± 1.9", "unit": "%"},
      {"measurement": "Fine Particle Dose", "setting": "I-neb, 83.3 mg loaded", "result": "40.7 ± 1.4", "unit": "mg"},
      {"measurement": "Inspired Dose", "setting": "I-neb, 83.3 mg loaded", "result": "78.2 ± 3.0", "unit": "mg"},
      {"measurement": "Output (FPD/Min)", "setting": "I-neb, 83.3 mg loaded", "result": "3.3 ± 0.2", "unit": "FPD/Min"},
      {"measurement": "Residual Dose", "setting": "I-neb, 83.3 mg loaded", "result": "5.4 ± 0.8", "unit": "mg"},
      {"measurement": "Total Recovered", "setting": "I-neb, 83.3 mg loaded", "result": "83.6 ± 2.7", "unit": "mg"},
      {"measurement": "Ultra Fine Particle Dose", "setting": "I-neb, 83.3 mg loaded", "result": "21.5 ± 0.8", "unit": "mg"},
      {"measurement": "Duration", "setting": "PARI STAR, 277.8 mg loaded", "result": "19.5 ± 0.7", "unit": "min"},
      {"measurement": "Expired Dose", "setting": "PARI STAR, 277.8 mg loaded", "result": "49.5 ± 7.2", "unit": "mg"},
      {"measurement": "FPD %", "setting": "PARI STAR, 277.8 mg loaded", "result": "32.4 ± 3.1", "unit": "%"},
      {"measurement": "Fine Particle Dose", "setting": "PARI STAR, 277.8 mg loaded", "result": "89.9 ± 7.8", "unit": "mg"},
      {"measurement": "Inspired Dose", "setting": "PARI STAR, 277.8 mg loaded", "result": "106.3 ± 10.1", "unit": "mg"},
      {"measurement": "Output (FPD/Min)", "setting": "PARI STAR, 277.8 mg loaded", "result": "4.6 ± 0.4", "unit": "FPD/Min"},
      {"measurement": "Residual Dose", "setting": "PARI STAR, 277.8 mg loaded", "result": "115.4 ± 14.6", "unit": "mg"},
      {"measurement": "Total Recovered", "setting": "PARI STAR, 277.8 mg loaded", "result": "271.2 ± 6.5", "unit": "mg"},
      {"measurement": "Ultra Fine Particle Dose", "setting": "PARI STAR, 277.8 mg loaded", "result": "73.6 ± 7.0", "unit": "mg"}
    ]}
  ]
}
